Experimental data published in publication PMC6740040.
Results are given in words; binding and its absence hold for the method and conditions named. In cells and extracts the contact can be indirect. Some binding calls cover weakened binding; strength is not graded here.

Protein sequences, listed by entry. Tags and fused reporters are not part of them.
UniProt P53396: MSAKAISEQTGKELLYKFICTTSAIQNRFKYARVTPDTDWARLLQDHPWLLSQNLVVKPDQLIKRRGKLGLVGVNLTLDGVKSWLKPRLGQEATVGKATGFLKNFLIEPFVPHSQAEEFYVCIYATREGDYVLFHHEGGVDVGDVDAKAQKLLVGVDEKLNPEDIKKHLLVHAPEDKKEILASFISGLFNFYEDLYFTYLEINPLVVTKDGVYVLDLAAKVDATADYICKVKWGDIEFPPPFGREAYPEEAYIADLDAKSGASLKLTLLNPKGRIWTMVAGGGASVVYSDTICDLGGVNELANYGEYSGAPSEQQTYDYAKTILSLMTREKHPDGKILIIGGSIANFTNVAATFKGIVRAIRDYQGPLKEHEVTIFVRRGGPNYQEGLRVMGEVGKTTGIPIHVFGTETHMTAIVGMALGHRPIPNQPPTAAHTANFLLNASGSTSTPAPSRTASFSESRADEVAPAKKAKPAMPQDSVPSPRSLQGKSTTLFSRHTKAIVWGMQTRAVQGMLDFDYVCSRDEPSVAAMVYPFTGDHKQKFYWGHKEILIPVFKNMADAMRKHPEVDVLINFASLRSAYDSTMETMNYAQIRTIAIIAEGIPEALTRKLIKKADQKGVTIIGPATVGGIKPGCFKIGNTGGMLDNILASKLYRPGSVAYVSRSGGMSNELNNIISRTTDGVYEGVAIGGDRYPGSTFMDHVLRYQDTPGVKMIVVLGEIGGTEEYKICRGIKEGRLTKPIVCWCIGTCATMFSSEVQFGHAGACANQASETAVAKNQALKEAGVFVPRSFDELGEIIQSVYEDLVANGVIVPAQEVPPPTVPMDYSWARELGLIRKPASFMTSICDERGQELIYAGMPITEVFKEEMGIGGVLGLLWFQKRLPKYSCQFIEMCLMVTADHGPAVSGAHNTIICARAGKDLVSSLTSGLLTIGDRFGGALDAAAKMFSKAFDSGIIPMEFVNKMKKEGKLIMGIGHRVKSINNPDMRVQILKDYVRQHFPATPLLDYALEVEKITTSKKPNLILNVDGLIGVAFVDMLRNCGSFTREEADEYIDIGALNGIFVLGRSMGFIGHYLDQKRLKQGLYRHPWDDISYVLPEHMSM
UniProt P35222: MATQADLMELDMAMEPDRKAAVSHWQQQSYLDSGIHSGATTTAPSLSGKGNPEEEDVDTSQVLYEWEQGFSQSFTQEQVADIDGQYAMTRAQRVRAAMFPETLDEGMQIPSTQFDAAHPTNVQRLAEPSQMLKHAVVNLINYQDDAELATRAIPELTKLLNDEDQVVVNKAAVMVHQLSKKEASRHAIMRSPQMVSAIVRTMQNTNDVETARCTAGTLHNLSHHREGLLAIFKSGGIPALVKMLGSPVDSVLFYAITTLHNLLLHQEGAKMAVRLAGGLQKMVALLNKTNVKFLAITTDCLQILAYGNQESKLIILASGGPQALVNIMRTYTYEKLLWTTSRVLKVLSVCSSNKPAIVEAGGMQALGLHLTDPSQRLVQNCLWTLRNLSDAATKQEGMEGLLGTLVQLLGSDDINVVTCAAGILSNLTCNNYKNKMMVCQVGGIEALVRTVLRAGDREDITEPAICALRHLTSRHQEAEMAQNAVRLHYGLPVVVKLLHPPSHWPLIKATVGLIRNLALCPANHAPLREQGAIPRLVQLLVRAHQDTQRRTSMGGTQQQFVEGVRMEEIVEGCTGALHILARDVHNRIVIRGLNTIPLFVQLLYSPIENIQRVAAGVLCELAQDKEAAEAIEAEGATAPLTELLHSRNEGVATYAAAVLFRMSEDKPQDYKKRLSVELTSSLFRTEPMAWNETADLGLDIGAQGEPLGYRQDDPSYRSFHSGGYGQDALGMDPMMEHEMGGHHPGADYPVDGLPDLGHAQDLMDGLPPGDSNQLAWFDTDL

Tests used:
[1] = biological target: ATP-citrate lyase (ACLY), endogenous (human (endogenous in HEK293T)) (UniProt P53396); test: co-IP; endogenous: HEK293T cell extracts, anti-ACLY on protein A/G agarose (rabbit IgG as control), immunoblot with anti-CTNNB1
[2] = biological target: Flag-tagged ATP-citrate lyase (ACLY) (UniProt P53396); test: co-IP; extracts of HEK293T cells transfected with Flag-ACLY for 48 h, anti-Flag M2 affinity gel at 4 °C for 3 h (mouse IgG as control), immunoblot with anti-CTNNB1

## CTNNB1 (beta-catenin 1) protein (from UniProt P35222 1-781)
[1]
  binding: binds
[2]
  binding: binds
